The structures appear in SMILES notation. The list shows a part of the results.

The test system of the assay is T1, CTL2-GFP (C. trachomatis L2/434/Bu, GFP-expressing).
T1 construct: L2/434/Bu, GFP-expressing
More on the design: species or system HeLa; Intracellular C. trachomatis growth in HeLa cells, bulk GFP fluorescence relative to DMSO. The following applies: bulk GFP, single well; 28.5 h, 10 µM; inhibitor.
As for `COCCNc1nc(-c2ccsc2)ccc1C(=O)N1CCN(C)CC1` [CBK105948], the “% of control remaining” value is given as 109.651%.
The result for `c1ccc(-c2cccc(-c3cc(Nc4ccc(N5CCOCC5)cc4)ncn3)c2)cc1` [CBK090930] reads 165.912%.
The result for `CCN1CCC2(CCC1=O)CN(Cc1cncn1CC(C)C)CCN2C` (centres unmarked) [CBK306947] reads 108.564%.
In the case of `Cc1ccc(N2CCCN(C(=O)CCc3ccsc3)CC2)nn1` [CBK304573] it was 135.101%.
With `CC(C)(C)OC(=O)Nc1ccc(Oc2ncc(C(F)(F)F)cc2Cl)cc1` [CBK161658], the “% of control remaining” value is recorded as 101.928%.
The result for `CCCc1cc(=O)[nH]c(Nc2ccc(OCC)cc2)n1` [CBK288140] reads 80.1538%.
The result for `O=S(=O)(c1ccc(C(F)(F)F)cc1Cl)N1CCN(Cc2c[nH]nc2-c2cccs2)CC1` [CBK062864] reads 95.221%; that for `COc1cccc(CCOc2cncc(Cl)n2)c1` [CBK113556], 103.938%; that for `CC1CN(Cc2nc3c(c(=O)[nH]c(=O)n3C)n2CCc2ccccc2)CC(C)O1` (centres unmarked) [CBK269876], 92.6778%.
In the case of `CN(CCOc1ccccc1)c1cc(C2CC(N)C2)nc(N)n1` (centres unmarked) [CBK306849] it was 109.886%.
Regarding `Cc1n[nH]c(C)c1CNC(=O)C1(c2ccccc2F)CC1` [CBK283156], the “% of control remaining” value was 143.162%.
In the case of `Cc1cc(O)nc(SCC(=O)Nc2cc([N+](=O)[O-])ccc2C)n1` [CBK267488] it was 98.5297%; in that of `O=C1CCC(=O)N1CCOc1nccnc1OC1CCN(CCCn2c(=O)[nH]c3ccccc32)CC1` [CBK084350], 125.301%; in that of `CCCNC(=O)Cn1nc(C)n2c(cc3sc(C)cc32)c1=O` [CBK284068], 137.323%.
In the case of `O=C(O)c1cccc(OCc2nnnn2-c2ccc(Br)cc2)c1` [CBK286744] it was 144.642%.
The result for `CCOc1cc(NC2CCN(C(=O)C3CCCC(C)(C)C3)CC2)ncn1` (centres unmarked) [CBK305547] reads 121.444%; that for `COc1ccc(OCC(O)Cn2c(CCCO)nc3ccccc32)cc1` (centres unmarked) [CBK305579], 118.519%; that for `CCc1nc(C)ccc1OCC(O)CNC(C)(C)C` (centres unmarked) [CBK019698], 120.904%.
As to `Cc1ccc(S(=O)(=O)NC(=O)N2CCCC2)cc1` [CBK001984], the “% of control remaining” value is given as 133.907%.
In the case of `Nc1ncnc(NCCc2ccc(S(N)(=O)=O)cc2)c1[N+](=O)[O-]` [CBK267320] it was 150.97%; in that of `CC1CCc2c(sc3nc(CN4CCCCC4C)[nH]c(=O)c23)C1` (centres unmarked) [CBK304975], 142.457%.
In the case of `Cn1c(C2CC2)nc2c1CCN(Cc1cc(=O)n(C)c(=O)n1C)C2` [CBK304025] it was 97.4822%; in that of `CC(C(=O)N1CCCCC1)n1sc2ccccc2c1=O` (centres unmarked) [CBK116322], 93.6654%; in that of `COc1cc(NC(=O)Cn2c(-c3cncs3)nc3ccccc32)cc(OC)c1OC` [CBK267640], 111.403%.
The result for `O=C(O)CCC(=O)CCC(=O)c1ccc(F)cc1` [CBK287191] reads 121.304%; that for `COc1cccc(CN2CC[C@H]3[C@@H](C2)[C@H](c2ccsc2)CN3C(=O)c2ccccc2)c1` [CBK285616], 121.674%.
For `CN1CCC(N(C)C(=O)NCc2cccnc2)C1` (centres unmarked) [CBK156001], the “% of control remaining” value is 122.281%.
With `COc1ccc(O)c(C(=O)c2cnn(-c3ccccn3)c2)c1` [CBK295141], the “% of control remaining” value amounted to 150.122%.
The result for `CC(=O)NC(=O)c1cccc(Br)c1` [CBK022890] reads 111.33%.
The result for `Cc1nn(C(C)CC(=O)NCC2CCN(C(C)C)CC2)c(C)c1C` (centres unmarked) [CBK282703] reads 131.211%.
Regarding `CCNC(=O)c1cnc(-c2ccc(Cl)cc2)c(-c2cccnc2)c1` [CBK037584], the “% of control remaining” value was 148.562%.
The result for `CCOC(=O)CCCNC(=O)N(CC)Cc1ccccc1` [CBK155252] reads 193.259%.
The result for `O=C(c1csc(-c2ccccc2)n1)N1CCn2nc(C3CC3)cc2C1` [CBK304676] reads 119.609%; that for `COc1ccc(CN2CCNC(=O)C2CC(=O)O)c(F)c1` (centres unmarked) [CBK270143], 122.925%; that for `CSc1ncc(CNC(=O)Nc2ccc3c(c2)CCC3)n1C` [CBK306996], 120.398%.
As to `CC(C)n1nccc1NC(=O)CCn1c(C(F)F)cc2cccnc21` [CBK284690], the “% of control remaining” value was 89.4899%.
In the case of `CC(=O)c1ccc(-c2nccnc2NCCc2ccncc2)s1` [CBK037300] it was 169.477%; in that of `Cc1ccc(NCC2CCN(Cc3cc(=O)n4ccccc4n3)C2)nc1` (centres unmarked) [CBK306334], 111.266%; in that of `COc1cccc(Nc2cc(-c3ccc(N4CCOCC4)cc3)ncn2)c1OC` [CBK037687], 220.204%.
As to `NC(=O)CCCCn1c2c(c3cccc(C(=O)O)c31)CCCCC2` [CBK034088], the “% of control remaining” value is listed as 99.5407%.
The result for `Cc1noc(C)c1NC(=O)c1cnccn1` [CBK200390] reads 115.163%.
In the case of `C=CCn1c(SCC(=O)Nc2cc(Cl)ccc2O)nnc1-c1ccccc1O` [CBK269102] it was 115.502%; in that of `Fc1ccc(C2(CCCN3CCN(c4ccncc4)CC3)OCCO2)cc1` [CBK038887], 100.172%; in that of `NC(=O)COc1ccccc1OCC(N)=O` [CBK261032], 117.493%.
As to `C/C(=N\NC(=O)c1ccccc1I)c1cccc(N)c1` [CBK260935], the “% of control remaining” value was 100.563%.
For `COc1cnc(-c2ccccc2)c(NC(C)=O)n1` [CBK145410], the “% of control remaining” value is on record as 100%.
The result for `O=C(O)CCN1CCN(Cc2ccc(Cl)cc2)CC1` [CBK287271] reads 128.158%.
The result for `CN(C)c1ccccc1-c1cnc(N2CCOCC2)c2nccn12` [CBK091280] reads 135.398%; that for `Brc1ccc2nc3c(nc2c1)Nc1nonc1N3` [CBK262414], 102.113%.
The result for `Cc1ccccc1NS(=O)(=O)c1ccc(OCC(=O)N2CCN(c3cc(Cl)ccc3C)CC2)cc1` [CBK267649] reads 117.998%; that for `COc1ccc(CCNS(=O)(=O)c2ccc(C3CNC(=O)C3)cc2)cc1OC` (centres unmarked) [CBK268352], 92.6254%; that for `CCCCNc1cc(N2CCN(c3cnn(C)c3)C(=O)C2)nc(N)n1` [CBK306260], 106.519%.
Turning to `Cc1cc(/C=C(/C#N)c2nc3ccccc3[nH]2)c(C)n1-c1ccc(N2CCOCC2)cc1` [CBK263792], the “% of control remaining” value is recorded as 118.677%.

Values taken from publication PMC12040169 (PLOS Biology, 2025).
